Data reported in the supplement of paper PMC11732987, “Enantioselective OTUD7B fragment discovery through chemoproteomics screening and high-throughput optimisation” (Communications Chemistry, 2025).
The list shows a part of the results. The data scatter; read single values as rough.

Sequences of proteins named here, by UniProt entry; tags and fusion partners are left off. A change or cut given only in a name is not applied to a line headed by its entry. Residues count along the entry.
UniProt Q9HAV4: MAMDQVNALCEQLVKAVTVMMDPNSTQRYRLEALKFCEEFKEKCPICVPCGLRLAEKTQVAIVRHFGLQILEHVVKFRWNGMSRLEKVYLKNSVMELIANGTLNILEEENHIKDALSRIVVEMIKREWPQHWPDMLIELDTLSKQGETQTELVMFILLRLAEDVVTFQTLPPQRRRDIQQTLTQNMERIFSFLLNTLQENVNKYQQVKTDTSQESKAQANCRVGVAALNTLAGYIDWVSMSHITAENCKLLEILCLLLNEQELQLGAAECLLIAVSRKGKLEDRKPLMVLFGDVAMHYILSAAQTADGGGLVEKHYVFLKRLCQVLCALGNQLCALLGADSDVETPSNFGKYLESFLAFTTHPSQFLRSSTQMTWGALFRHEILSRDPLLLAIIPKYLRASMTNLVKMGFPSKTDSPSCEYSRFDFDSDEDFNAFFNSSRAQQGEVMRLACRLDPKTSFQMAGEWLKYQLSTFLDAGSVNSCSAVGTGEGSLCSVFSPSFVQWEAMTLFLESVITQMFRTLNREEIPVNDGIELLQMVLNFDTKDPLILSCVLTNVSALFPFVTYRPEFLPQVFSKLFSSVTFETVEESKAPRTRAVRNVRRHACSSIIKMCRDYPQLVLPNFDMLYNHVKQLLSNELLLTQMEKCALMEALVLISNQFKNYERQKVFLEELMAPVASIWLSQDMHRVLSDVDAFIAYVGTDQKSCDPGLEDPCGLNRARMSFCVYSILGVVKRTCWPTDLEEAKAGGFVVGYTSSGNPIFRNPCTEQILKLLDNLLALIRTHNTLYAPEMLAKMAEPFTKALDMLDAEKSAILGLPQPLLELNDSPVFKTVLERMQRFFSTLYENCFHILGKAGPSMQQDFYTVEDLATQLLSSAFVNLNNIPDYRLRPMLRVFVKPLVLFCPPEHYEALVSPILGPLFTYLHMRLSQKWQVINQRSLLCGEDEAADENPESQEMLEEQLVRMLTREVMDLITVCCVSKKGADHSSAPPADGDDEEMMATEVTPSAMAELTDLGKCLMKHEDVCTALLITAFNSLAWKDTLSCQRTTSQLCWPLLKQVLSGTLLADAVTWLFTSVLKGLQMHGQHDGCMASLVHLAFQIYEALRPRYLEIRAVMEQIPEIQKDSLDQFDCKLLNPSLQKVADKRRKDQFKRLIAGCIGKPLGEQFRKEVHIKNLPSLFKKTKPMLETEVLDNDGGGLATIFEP
UniProt Q9Y2K1: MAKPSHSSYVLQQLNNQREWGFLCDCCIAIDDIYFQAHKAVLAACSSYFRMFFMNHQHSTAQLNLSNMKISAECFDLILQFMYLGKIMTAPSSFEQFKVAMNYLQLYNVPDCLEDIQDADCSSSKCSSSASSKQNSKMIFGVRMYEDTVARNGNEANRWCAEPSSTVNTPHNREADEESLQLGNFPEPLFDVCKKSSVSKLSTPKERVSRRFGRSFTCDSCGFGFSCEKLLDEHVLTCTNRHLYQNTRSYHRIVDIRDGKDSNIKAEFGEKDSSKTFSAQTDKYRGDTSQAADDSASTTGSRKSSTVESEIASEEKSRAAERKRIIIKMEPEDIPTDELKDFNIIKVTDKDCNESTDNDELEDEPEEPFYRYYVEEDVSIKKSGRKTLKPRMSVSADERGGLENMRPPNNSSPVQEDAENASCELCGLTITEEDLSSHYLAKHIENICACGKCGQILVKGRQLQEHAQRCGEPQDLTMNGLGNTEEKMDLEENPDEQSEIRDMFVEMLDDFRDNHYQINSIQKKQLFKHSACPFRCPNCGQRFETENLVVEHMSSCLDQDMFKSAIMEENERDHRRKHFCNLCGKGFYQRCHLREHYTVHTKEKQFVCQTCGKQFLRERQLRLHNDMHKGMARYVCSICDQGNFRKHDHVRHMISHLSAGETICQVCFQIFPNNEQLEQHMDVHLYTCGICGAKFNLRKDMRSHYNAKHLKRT
UniProt Q9BQA1: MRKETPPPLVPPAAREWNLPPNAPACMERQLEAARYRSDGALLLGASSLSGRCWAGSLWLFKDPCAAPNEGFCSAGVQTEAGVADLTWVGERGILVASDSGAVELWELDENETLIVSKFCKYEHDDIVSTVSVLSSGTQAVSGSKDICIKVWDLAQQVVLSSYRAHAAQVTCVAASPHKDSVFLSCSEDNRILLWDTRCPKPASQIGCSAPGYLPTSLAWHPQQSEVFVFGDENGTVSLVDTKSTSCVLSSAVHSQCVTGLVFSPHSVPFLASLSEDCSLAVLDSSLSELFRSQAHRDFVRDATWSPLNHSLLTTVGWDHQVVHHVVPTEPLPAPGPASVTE
UniProt Q8N9V3: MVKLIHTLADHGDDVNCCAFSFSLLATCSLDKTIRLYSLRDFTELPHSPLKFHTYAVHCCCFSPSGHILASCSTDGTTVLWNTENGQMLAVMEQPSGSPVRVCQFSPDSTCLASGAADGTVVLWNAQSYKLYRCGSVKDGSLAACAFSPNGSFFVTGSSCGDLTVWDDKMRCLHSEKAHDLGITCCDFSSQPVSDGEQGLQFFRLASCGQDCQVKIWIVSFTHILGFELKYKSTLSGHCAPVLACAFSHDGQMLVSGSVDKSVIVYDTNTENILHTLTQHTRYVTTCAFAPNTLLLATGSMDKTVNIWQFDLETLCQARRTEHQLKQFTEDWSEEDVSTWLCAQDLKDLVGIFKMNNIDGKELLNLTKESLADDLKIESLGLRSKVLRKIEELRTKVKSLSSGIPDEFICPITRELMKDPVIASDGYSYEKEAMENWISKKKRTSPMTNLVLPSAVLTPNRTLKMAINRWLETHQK
UniProt O95625: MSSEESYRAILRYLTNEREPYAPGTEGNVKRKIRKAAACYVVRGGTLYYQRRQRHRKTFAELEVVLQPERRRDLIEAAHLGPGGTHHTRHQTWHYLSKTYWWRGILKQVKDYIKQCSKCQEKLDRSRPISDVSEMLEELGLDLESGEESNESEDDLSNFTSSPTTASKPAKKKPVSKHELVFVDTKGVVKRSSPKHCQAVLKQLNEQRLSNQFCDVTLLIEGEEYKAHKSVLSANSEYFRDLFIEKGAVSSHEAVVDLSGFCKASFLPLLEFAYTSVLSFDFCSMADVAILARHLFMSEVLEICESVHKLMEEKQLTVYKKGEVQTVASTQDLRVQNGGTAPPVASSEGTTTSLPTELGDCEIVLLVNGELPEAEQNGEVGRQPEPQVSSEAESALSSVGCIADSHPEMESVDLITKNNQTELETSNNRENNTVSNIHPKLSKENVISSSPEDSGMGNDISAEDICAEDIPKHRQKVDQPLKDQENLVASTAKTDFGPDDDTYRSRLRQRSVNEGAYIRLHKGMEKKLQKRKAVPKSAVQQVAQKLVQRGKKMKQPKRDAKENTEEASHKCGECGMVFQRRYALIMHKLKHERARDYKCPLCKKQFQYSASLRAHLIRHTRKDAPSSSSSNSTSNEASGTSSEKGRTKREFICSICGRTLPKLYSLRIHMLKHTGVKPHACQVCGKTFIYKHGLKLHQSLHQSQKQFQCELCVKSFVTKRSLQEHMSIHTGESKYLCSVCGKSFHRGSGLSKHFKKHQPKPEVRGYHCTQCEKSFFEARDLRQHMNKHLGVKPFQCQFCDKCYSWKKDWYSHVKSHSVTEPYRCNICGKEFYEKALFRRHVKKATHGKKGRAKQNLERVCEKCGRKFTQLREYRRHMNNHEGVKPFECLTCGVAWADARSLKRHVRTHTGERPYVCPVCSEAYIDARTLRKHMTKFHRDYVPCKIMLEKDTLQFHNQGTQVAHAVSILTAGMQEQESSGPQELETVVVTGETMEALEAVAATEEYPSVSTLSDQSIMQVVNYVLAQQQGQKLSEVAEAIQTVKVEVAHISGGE
UniProt Q8IWR0: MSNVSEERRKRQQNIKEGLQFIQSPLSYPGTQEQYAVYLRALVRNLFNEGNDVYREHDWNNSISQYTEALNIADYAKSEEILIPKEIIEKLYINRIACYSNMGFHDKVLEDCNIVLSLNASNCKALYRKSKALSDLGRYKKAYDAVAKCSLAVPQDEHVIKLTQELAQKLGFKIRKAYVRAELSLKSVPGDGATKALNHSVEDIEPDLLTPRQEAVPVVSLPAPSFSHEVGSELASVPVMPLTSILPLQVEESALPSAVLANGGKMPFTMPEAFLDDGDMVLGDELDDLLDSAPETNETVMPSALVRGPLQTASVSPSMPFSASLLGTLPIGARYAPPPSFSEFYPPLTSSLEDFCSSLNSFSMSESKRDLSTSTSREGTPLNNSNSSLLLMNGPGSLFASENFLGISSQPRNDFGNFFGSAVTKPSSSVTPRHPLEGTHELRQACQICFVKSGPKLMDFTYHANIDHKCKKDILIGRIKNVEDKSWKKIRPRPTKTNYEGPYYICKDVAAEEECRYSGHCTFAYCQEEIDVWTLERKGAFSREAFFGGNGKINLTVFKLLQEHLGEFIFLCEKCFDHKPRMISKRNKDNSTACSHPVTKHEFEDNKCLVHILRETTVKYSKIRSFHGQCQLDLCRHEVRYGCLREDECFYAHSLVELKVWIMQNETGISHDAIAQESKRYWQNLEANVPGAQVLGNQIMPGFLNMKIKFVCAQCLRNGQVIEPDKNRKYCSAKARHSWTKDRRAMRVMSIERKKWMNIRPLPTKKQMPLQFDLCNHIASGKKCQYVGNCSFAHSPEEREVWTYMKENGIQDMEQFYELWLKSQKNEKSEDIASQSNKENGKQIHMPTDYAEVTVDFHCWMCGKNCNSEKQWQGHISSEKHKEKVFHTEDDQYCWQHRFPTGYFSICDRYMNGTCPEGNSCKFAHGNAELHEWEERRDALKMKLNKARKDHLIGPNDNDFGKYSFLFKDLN
UniProt Q9BYP7: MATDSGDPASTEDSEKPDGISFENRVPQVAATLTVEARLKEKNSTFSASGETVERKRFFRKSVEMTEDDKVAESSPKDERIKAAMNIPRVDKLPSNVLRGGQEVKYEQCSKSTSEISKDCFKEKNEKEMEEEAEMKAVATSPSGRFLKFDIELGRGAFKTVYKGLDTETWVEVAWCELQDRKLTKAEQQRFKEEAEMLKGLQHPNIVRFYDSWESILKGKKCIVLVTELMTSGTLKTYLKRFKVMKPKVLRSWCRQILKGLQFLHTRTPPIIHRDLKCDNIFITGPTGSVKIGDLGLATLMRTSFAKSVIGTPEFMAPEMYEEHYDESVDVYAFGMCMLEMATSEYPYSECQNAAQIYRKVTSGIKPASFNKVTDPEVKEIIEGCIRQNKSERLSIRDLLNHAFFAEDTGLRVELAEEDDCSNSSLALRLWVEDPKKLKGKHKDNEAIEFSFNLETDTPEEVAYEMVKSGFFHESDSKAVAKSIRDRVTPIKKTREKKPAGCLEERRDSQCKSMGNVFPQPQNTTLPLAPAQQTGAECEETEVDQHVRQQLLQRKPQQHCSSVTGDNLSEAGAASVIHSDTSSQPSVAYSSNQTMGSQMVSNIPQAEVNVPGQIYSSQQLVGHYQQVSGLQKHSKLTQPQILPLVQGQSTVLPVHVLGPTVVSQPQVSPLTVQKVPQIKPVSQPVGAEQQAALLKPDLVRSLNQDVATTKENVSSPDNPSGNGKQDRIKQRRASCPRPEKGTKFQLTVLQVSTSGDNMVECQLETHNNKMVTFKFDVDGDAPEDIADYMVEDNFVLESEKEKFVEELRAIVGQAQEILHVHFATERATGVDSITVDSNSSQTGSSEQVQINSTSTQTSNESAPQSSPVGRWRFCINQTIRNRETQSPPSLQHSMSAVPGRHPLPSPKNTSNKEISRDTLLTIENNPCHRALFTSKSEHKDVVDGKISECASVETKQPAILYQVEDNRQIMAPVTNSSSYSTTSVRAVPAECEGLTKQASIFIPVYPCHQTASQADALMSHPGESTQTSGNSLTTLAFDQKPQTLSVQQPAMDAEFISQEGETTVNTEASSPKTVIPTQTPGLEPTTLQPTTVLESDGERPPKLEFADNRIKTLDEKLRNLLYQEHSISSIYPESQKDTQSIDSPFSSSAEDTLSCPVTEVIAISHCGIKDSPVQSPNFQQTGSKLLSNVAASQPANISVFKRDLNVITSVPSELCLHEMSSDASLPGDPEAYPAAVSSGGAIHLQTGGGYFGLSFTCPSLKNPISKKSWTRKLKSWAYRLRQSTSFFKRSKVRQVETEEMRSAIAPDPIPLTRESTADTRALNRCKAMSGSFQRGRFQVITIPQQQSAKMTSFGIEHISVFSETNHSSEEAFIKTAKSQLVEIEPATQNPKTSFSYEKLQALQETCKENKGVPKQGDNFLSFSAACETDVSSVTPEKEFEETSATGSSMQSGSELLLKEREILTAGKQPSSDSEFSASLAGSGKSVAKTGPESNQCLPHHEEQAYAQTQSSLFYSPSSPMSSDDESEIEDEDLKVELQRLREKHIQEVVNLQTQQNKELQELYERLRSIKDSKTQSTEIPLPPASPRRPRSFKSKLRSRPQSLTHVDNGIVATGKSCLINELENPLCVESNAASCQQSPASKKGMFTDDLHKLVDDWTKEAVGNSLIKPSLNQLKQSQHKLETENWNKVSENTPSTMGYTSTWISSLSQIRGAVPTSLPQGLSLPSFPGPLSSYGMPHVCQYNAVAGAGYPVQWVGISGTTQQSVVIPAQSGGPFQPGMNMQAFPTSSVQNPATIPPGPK
UniProt Q96C00, 1-21: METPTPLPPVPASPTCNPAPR

Compound: ClCC(=O)N[C@@H]1CCCc2ccccc12
Test: log2 mean competition ratio of IA-DTB cysteine labelling (DMSO/compound) (log2 ratio); higher = stronger cysteine engagement by compound
Details: 50 µM; treatment time: 4 h; cell line lysate: HEK293T
Protocol: (§1)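 IA-DTB competitive cysteine chemoproteomics in HEK293T RIPA lysate. Lysates were treated with compound 29 or 30 at 50 or 200 µM for 4 h, then IA-DTB (500 µM, 1 h), trypsin-digested, NeutrAvidin-enriched and analysed by diaPASEF. Competition ratio = intensity DMSO / intensity compound (n=4 treated, n=64 DMSO); binding: mean log2 CR ≥ 1 and p ≤ 0.05 plus QC filters. Target is the cysteine site.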

Target | log2 mean competition ratio
VPS53 C365 (UniProt Q5VIR6) | 0.191
WDR59 C163 (UniProt Q6PJI9) | -0.0679
ZBTB18 C13 (UniProt Q99592) | -0.0178
XPO5 C10 (UniProt Q9HAV4) | -0.144
YTHDF3;YTHDF1 C439;(C412) | -0.0256
ZBTB1 C160 (UniProt Q9Y2K1) | 0.0721
WDR77 C26 (UniProt Q9BQA1) | -0.15
VPS39 C844 (UniProt Q96JC1) | 0.0378
XPO6 C22 (UniProt Q96QU8) | -0.15
XRCC3 C310 (UniProt O43542) | 0.0376
WDSUB1 C410 (UniProt Q8N9V3) | -0.24
WSCD2 C509 | -0.159
WDR91 C351 (UniProt A4D1P6) | -0.0335
WNK1 C547 (UniProt Q9H4A3) | -0.306
ZBTB11 C262 (UniProt O95625) | -0.0826
XPO1 C119 (UniProt O14980) | -0.114
XRCC1 C362 | 0.194
WFS1 C12 (UniProt O76024) | -0.422
ZC3H13 C1046 (UniProt Q5T200) | -0.0891

Target | log2 mean competition ratio
ZBTB21 C911 (UniProt Q9ULJ3) | 0.243
ZC3H7A C149 (UniProt Q8IWR0) | 0.372
WLS C162 (UniProt Q5T9L3) | -0.0443
XRCC1 C615 | -0.0733
ZBTB21 C378 (UniProt Q9ULJ3) | -0.279
WNK3 C927 (UniProt Q9BYP7) | -0.0936
WAC C15 (UniProt Q9BTA9) | -0.21
WAPL C685 (UniProt Q7Z5K2) | 0.0125
WDR18 C384 (UniProt Q9BV38) | 0.0211
VPS39 C235 (UniProt Q96JC1) | -0.317
VPS35 C156 | 0.0833
XRCC1 C389 | -0.0333
ZBTB9 C16 (UniProt Q96C00) | -0.194
WDR3 C625 (UniProt Q9UNX4) | 0.0415
WDR41 C340 (UniProt Q9HAD4) | -0.364
ZBTB10 C394 (UniProt Q96DT7) | 0.0798
XPO6 C1114 (UniProt Q96QU8) | 0.0153
WRN C771 (UniProt Q14191) | 0.235

Same assay, conditions: 200 µM; treatment time: 4 h; cell line lysate: HEK293T

Target | log2 mean competition ratio
VPS53 C365 (UniProt Q5VIR6) | -0.156
WDR59 C163 (UniProt Q6PJI9) | -0.418
ZBTB18 C13 (UniProt Q99592) | 0.000249
XPO5 C10 (UniProt Q9HAV4) | -0.549
YTHDF3;YTHDF1 C439;(C412) | -0.158
ZBTB1 C160 (UniProt Q9Y2K1) | 0.1
WDR77 C26 (UniProt Q9BQA1) | -0.204
VPS39 C844 (UniProt Q96JC1) | -0.182
XPO6 C22 (UniProt Q96QU8) | 0.406
XRCC3 C310 (UniProt O43542) | 0.276
WDSUB1 C410 (UniProt Q8N9V3) | 0.056
WSCD2 C509 | -0.185
WDR91 C351 (UniProt A4D1P6) | 0.00519
WNK1 C547 (UniProt Q9H4A3) | -0.107
ZBTB11 C262 (UniProt O95625) | -0.013
XPO1 C119 (UniProt O14980) | -0.0869
XRCC1 C362 | -0.0792
WFS1 C12 (UniProt O76024) | -0.0842
ZC3H13 C1046 (UniProt Q5T200) | -0.102

Target | log2 mean competition ratio
ZBTB21 C911 (UniProt Q9ULJ3) | -0.257
ZC3H7A C149 (UniProt Q8IWR0) | 0.0865
WLS C162 (UniProt Q5T9L3) | 0.186
XRCC1 C615 | -0.187
ZBTB21 C378 (UniProt Q9ULJ3) | -0.133
WNK3 C927 (UniProt Q9BYP7) | 0.122
WAC C15 (UniProt Q9BTA9) | 0.218
WAPL C685 (UniProt Q7Z5K2) | 0.474
WDR18 C384 (UniProt Q9BV38) | -0.222
VPS39 C235 (UniProt Q96JC1) | 0.217
VPS35 C156 | -0.0282
XRCC1 C389 | 0.228
ZBTB9 C16 (UniProt Q96C00) | -0.401
WDR3 C625 (UniProt Q9UNX4) | 0.13
WDR41 C340 (UniProt Q9HAD4) | 0.205
ZBTB10 C394 (UniProt Q96DT7) | -0.127
XPO6 C1114 (UniProt Q96QU8) | 0.0835
WRN C771 (UniProt Q14191) | 0.528

Compound: ClCC(=O)N[C@H]1CCCc2ccccc12
Test: as above
Details: 50 µM; treatment time: 4 h; cell line lysate: HEK293T
Protocol: as §1

Target | log2 mean competition ratio
VPS53 C365 (UniProt Q5VIR6) | -0.478
WDR59 C163 (UniProt Q6PJI9) | -0.264
ZBTB18 C13 (UniProt Q99592) | -0.0516
XPO5 C10 (UniProt Q9HAV4) | -0.145
YTHDF3;YTHDF1 C439;(C412) | -0.496
ZBTB1 C160 (UniProt Q9Y2K1) | -0.149
WDR77 C26 (UniProt Q9BQA1) | 0.143
VPS39 C844 (UniProt Q96JC1) | 0.0844
XPO6 C22 (UniProt Q96QU8) | -0.159
XRCC3 C310 (UniProt O43542) | 0.318
WDSUB1 C410 (UniProt Q8N9V3) | -0.0637
WSCD2 C509 | -0.0696
WDR91 C351 (UniProt A4D1P6) | -0.4
WNK1 C547 (UniProt Q9H4A3) | -0.00112
ZBTB11 C262 (UniProt O95625) | -0.089
XPO1 C119 (UniProt O14980) | -0.154
XRCC1 C362 | -0.0916
WFS1 C12 (UniProt O76024) | 0.257
ZC3H13 C1046 (UniProt Q5T200) | 0.353

Target | log2 mean competition ratio
ZBTB21 C911 (UniProt Q9ULJ3) | 0.0663
ZC3H7A C149 (UniProt Q8IWR0) | 0.0897
WLS C162 (UniProt Q5T9L3) | 0.115
XRCC1 C615 | 0.0154
ZBTB21 C378 (UniProt Q9ULJ3) | 0.134
WNK3 C927 (UniProt Q9BYP7) | 0.32
WAC C15 (UniProt Q9BTA9) | -0.154
WAPL C685 (UniProt Q7Z5K2) | -0.166
WDR18 C384 (UniProt Q9BV38) | -0.158
VPS39 C235 (UniProt Q96JC1) | -0.303
VPS35 C156 | 0.105
XRCC1 C389 | 0.26
ZBTB9 C16 (UniProt Q96C00) | 0.146
WDR3 C625 (UniProt Q9UNX4) | -0.126
WDR41 C340 (UniProt Q9HAD4) | -0.513
ZBTB10 C394 (UniProt Q96DT7) | 0.357
XPO6 C1114 (UniProt Q96QU8) | -0.352
WRN C771 (UniProt Q14191) | 0.259
